Data published in patent publication US20110118172 (published 2011).

Key:
[1] = general procedure: Fmoc solid-phase peptide synthesis; Rink Amide MBHA resin (0.4 mmol/g); DIPCDI/HOAt; conditions: whole synthesis
peptide synthesis = conditions: coupling step

des(1)-Ac-[D-Tyr2,Hyp3,Thr5,Phe6%(CSNH)Gly7,Arg(Me)9,Trp10]MS10
isolated mass ([1]; scale 0.03 mmol): 3.7 mg

des(1)-Ac-[D-Tyr2,Hyp3,Thr5,Cha6,AzaGly7,Arg(Me)9,Trp10]MS10
isolated mass ([1]; scale 0.02 mmol): 7.4 mg

des(1)-Ac-[D-Tyr2,Hyp3,Alb4,Thr5,D-Cha6,Gly7ψ((E)CH═CH)Leu8,Arg(Me)9,Trp10]MS10
isolated mass ([1]; scale 0.04 mmol): 4.5 mg

des(1)-amidino-[D-Tyr2,Hyp3,Thr5,AzaGly7,Arg(Me)9,Trp10]MS10
isolated mass ([1]; scale 0.02 mmol): 1.9 mg

Z-Phe-ψ(NHCO)-Gly-Leu-Arg(Boc2,Me)-Trp-NH2
step yield (peptide synthesis): 66.6%
